Laboratory results as given in publication PMC5810440, “The Origins of Specificity in the Microcin-Processing Protease TldD/E” (Structure(London, England:1993), 2017).
Results are given in words; binding and its absence hold for the method and conditions named. Some results given as binding are weak or reduced against the parent protein; the word gives no strength. Where a sequence is shown, tags or fusion partners need not be part of it.

Target: T1, E. coli TldD/E heterodimer (wild-type, co-purified TldD-His/E complex) (E. coli) (UniProt P0AGG8+P0AFK0)
T1 sequence 1: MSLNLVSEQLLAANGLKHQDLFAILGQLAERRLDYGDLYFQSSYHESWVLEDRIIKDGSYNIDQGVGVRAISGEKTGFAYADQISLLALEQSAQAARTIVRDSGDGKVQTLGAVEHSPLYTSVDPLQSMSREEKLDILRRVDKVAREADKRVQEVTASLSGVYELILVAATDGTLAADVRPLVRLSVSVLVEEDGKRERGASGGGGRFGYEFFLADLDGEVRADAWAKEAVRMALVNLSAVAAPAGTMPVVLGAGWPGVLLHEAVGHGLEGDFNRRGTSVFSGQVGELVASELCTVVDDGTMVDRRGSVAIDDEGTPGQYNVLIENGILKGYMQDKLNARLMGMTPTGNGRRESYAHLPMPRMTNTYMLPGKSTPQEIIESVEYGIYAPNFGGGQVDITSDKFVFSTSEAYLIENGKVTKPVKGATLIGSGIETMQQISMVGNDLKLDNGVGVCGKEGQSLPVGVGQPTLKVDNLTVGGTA
T1 sequence 2: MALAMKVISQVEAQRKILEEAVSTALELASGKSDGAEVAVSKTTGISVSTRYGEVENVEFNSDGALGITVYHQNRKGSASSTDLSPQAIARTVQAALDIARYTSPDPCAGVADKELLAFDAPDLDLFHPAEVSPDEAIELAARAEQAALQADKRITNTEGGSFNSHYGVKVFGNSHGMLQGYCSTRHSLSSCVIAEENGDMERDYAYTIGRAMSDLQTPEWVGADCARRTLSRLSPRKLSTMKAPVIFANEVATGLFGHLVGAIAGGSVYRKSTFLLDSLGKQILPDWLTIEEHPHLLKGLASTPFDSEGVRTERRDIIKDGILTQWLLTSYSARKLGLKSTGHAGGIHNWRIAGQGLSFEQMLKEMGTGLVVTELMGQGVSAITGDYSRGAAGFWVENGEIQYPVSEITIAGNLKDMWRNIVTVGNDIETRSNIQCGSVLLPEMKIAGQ
Test: crystal structure; co-crystallisation of wild-type TldD/E with added peptide ligand at 2.5 mM, condition 2 (20% PEG 1500, 0.1 M MMT pH 8.0), microseeding; both purified

- binding: binds
Binder: DRVYIHPF (central (Tyr-Ile) peptide bond replaced with a non-cleavable methylene bond) [Angiotensin II analogue (DRVY-CH2-IHPF)]
